# Results taken from patent US10919929B2, “Glucocorticoid inhibitors for treatment of prostate cancer” (Sloan-Kettering Institute for Cancer Research, priority 2013, dated 2021).
# At least one structure is not confirmed: it was looked up by name or label, or the drawing left a doubt.
# Assays:
# [1] = system: AR target genes in VCaP cells; experiment: Expression of AR target genes in VCaP cells; assay type: cell-based
# [2] = system: AR target genes in LREX′ cells; experiment: Expression of AR target genes in LREX′ cell line in steroid depleted media (RT-qPCR); assay type: cell-based, human; conditions: 8 hours
# Description: A. Normalized expression array signal (Illumina HT-12) of a suite of 74 AR target genes in control (n=10), 4 day (n=8), and LREX′ (n=8, right) xenograft tumors. Genes are ranked by degree of restoration of expression in resistant tissue ((Res-4 day)/(Control-4 day)). All resistant tissues were continued on anti-androgen treatment through time of harvest. B. Fractional restoration values of each of the 74 AR targets in LREX′ xenografts (n=8) or resistant tissues from the validation cohort (n=12). C. GR mRNA in resistant tissues used in B. D. Expression of AR target genes in the LREX′ cell line in steroid depleted media after 8 hours of treatment with the indicated agonists, in vitro. […] A. LnCaP/AR cells engineered to express GFP or GR were treated with indicated drugs. […] D. Control or AR siRNA knock-down in LREX′ followed by treatment with indicated drugs. […] Cells were treated in charcoal stripped media. Expression determined by RT-qPCR+/−s.e.m.
# LREX′ cells were derived from a single enzalutamide resistant tumor that was harvested, disaggregated with collagenase treatment, and then maintained in RPMI supplemented with 20% FBS and 1 μM enzalutamide. Cells were initially grown on collagen-coated flasks until confluent and then were maintained on standard tissue culture dishes. CS1 were similarly derived from vehicle treated tumors and maintained in standard LNCaP/AR media. LNCaP/AR and LREX′ cells were cultured in phenol-red free RPMI with 10% charcoal-stripped FBS prior to drug treatments.
# VCaP cells = experiment: VCaP cell viability by CellTiter-Glo; assay type: cell-based; conditions: Dex 100 nM + Enz 10 micromolar
# Method: Enz=10 micromolar, Dex=100 nM, CMP 15=1 micromolar. A. Western blot analysis of prostate cancer cell lines. B, C and D. Cell viability assessed by CellTiter-Glo (Promega) assay and normalized to day 1 value after indicated treatments+/−s.e.m. E. Confirmation of GR knock-down by western blot after infection with GR targeting shRNA. F. Apoptosis as assessed by cPARP western blot after 3 days of indicated treatment. G. A suite of AR targets relevant to VCaP was defined (see methods) and normalized expression of each gene after 24 hours of indicated drug treatments is depicted by heat map and ranked by degree of induction with Dex. H. Expression of the top two genes from B. (KLK2 and FKBP5) after 24 hours of indicated treatments+/−s.e.m.
# VCaP: Cells were plated in triplicate and then assayed in triplicate at the time points indicated using CellTiter-Glo (Promega). Viability is plotted normalized to day 1. For knockdown studies, cells were infected and then plated 3 days later for the experiment without prior drug selection. LnCaP/AR and sub-lines: Equivalent numbers of cells were plated and then harvested and counted in triplicate at indicated time points using the Beckman Coulter Vi-Cell XR. Cells were passaged at each time point and identical numbers of cells re-plated. Fold increase in cell numbers were determined for each time interval. […]
# [3] = system: endogenous target genes in LREX′ cells; experiment: Endogenous target genes in LREX′ cell line cultures in FBS with 1 μM Enz; assay type: cell-based, human
# [4] = system: AR target gene expression; experiment: AR target gene expression with GR antagonists; assay type: cell-based
# [5] = VCaP, Dex in the presence of enzalutamide, 24 hours
structure (smiles),measurement,setting,value
"C[C@@H]1C[C@H]2[C@@H]3CCC4=CC(=O)C=C[C@]4(C)[C@@]3(F)[C@@H](O)C[C@]2(C)[C@@]1(O)C(=O)CO [Dex, dexamethasone]",expression of the clinical biomarker PSA,[1]; VCaP cells,induced expression
same,"expression of DHCR24, SLC2A3, TRPM8, TMEM79",[1]; [5],not others
same,"expression of KLK2, FKBP5, HOMER2, SLC45A3",[1]; [5],restored expression
same,induction of KLK3 (PSA),[2],comparably induced
same,induction of SGK1 and STK39,[2],strongly induced
same,"induction of TIPARP, NDRG1, and PMEPA1",[2],did not induce
same,effect of co-treatment on enzalutamide growth inhibition,VCaP cells,reversed this growth inhibition
same,induction of 3 endogenous target genes,[3],induced
"CC#C[C@]1(O)CC[C@H]2[C@@H]3CCC4=CC(=O)CCC4=C3[C@@H](c3ccc(N(C)C)cc3)C[C@@]21C [RU486, RU-486]",AR target gene expression,[4],activate AR target gene expression
